According to the supplement of paper PMC6411743:
± gives the standard deviation of the averaged measurements. Only a part is listed here, and it is no random draw. Most entries show no effect beyond the scatter of the controls.

The chains behind the UniProt entries cited, without tags or fusion partners. Where a name states a change or a piece, a line headed by the entry shows the natural chain unless it says otherwise.
UniProt Q68DK2: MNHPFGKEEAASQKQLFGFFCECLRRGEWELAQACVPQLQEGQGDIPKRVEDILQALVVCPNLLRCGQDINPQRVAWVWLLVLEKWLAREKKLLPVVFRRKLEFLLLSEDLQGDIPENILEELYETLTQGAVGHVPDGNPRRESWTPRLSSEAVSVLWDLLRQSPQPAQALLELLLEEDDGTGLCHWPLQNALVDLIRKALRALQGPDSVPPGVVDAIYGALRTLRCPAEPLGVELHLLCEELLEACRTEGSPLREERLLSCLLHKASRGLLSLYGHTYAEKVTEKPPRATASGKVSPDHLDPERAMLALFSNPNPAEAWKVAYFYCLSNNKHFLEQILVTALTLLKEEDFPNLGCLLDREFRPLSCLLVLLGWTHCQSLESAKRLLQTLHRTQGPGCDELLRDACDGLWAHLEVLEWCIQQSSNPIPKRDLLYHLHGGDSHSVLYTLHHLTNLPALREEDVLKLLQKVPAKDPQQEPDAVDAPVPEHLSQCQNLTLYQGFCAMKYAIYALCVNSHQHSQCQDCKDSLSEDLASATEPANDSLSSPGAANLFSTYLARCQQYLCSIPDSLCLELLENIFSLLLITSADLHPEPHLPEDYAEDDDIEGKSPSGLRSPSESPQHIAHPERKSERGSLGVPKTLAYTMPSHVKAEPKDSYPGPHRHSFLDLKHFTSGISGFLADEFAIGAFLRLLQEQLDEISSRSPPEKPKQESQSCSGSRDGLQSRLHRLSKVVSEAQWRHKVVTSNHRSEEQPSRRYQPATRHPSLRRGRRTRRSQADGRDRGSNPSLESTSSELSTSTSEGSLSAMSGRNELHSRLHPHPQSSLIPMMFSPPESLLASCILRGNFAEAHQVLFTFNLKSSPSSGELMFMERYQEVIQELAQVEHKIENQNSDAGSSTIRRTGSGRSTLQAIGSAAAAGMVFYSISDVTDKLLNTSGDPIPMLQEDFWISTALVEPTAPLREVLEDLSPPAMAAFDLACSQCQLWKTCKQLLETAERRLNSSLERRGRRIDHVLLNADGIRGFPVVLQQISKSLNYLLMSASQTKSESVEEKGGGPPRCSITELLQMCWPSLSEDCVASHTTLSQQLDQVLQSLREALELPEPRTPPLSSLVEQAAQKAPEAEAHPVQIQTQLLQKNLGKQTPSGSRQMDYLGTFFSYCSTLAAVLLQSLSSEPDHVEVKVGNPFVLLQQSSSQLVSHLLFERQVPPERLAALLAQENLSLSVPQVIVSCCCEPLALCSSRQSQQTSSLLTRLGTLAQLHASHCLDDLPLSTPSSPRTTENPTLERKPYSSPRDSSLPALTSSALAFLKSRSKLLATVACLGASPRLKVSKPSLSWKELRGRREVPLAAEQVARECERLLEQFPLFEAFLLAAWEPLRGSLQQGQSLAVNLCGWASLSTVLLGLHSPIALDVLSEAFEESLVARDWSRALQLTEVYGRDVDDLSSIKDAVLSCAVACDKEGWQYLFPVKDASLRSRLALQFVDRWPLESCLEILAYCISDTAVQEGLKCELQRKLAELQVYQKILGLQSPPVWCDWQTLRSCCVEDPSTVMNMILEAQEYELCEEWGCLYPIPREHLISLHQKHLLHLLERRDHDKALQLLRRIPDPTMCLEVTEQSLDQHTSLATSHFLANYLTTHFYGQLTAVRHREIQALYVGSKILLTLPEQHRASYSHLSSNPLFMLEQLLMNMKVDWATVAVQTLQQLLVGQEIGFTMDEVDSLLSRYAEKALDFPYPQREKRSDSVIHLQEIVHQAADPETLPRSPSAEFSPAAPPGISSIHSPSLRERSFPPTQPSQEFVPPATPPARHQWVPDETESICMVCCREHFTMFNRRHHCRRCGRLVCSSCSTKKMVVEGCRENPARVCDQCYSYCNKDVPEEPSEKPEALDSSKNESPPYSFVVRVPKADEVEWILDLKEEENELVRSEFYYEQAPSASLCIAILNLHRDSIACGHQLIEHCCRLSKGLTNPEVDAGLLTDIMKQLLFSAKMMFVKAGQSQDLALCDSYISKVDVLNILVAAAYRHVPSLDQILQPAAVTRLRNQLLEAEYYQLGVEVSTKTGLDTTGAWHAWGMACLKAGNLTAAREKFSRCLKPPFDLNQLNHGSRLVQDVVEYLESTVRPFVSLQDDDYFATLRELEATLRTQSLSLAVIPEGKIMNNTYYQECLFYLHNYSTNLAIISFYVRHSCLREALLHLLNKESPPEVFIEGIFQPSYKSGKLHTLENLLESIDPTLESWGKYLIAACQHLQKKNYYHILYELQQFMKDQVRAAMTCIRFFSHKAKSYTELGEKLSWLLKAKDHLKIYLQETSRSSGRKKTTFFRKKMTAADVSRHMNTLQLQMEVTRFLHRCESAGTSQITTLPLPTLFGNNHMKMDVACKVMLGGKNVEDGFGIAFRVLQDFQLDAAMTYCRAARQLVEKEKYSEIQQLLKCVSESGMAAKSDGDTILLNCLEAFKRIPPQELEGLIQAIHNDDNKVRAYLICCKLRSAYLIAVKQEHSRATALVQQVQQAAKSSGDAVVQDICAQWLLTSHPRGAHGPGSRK
UniProt Q6IA86: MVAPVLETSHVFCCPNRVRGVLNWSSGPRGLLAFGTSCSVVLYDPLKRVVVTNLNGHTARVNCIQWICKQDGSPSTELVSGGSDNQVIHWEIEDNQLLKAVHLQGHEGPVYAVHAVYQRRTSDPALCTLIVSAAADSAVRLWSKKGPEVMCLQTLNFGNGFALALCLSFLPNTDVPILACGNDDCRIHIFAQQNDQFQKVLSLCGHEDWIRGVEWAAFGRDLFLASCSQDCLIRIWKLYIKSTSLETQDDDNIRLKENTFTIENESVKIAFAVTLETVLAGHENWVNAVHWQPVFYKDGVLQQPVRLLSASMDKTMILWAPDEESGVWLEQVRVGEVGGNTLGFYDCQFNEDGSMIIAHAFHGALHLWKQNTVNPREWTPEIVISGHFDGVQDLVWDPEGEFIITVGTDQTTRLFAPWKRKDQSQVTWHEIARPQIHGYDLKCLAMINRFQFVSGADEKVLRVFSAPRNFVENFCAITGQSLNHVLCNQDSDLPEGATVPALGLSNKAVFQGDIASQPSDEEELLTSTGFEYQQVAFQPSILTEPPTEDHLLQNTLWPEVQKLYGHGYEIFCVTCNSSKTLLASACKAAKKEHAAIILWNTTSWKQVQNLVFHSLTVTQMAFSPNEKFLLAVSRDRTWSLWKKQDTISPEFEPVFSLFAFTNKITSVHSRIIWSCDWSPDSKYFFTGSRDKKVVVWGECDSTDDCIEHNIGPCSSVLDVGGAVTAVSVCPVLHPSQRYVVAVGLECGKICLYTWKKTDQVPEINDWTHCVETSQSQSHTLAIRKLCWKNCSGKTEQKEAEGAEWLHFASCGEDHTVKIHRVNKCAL
UniProt Q5W0U4: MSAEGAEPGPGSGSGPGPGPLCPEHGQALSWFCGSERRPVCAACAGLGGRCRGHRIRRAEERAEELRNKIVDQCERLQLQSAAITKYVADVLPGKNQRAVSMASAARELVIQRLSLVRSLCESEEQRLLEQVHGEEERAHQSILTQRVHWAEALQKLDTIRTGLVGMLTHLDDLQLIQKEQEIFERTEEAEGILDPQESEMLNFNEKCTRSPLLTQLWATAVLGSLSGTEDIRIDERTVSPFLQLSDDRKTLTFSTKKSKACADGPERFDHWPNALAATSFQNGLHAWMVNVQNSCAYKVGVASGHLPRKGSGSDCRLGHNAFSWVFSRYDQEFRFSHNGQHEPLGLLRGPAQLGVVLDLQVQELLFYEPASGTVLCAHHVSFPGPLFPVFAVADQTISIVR
UniProt Q5VV52: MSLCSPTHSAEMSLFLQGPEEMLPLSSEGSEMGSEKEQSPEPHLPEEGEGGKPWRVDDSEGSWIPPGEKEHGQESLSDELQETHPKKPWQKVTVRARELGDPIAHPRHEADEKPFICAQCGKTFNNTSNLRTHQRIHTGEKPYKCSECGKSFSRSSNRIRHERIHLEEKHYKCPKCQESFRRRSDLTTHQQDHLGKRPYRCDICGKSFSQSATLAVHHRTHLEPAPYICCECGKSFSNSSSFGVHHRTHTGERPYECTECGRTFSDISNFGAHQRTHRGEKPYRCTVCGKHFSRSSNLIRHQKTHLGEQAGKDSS
UniProt Q53RE8: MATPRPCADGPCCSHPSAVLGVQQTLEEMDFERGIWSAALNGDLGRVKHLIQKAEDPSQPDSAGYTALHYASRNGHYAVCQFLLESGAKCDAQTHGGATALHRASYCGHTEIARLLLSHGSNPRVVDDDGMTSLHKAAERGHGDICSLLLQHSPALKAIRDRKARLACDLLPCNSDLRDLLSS
UniProt Q5TFE4: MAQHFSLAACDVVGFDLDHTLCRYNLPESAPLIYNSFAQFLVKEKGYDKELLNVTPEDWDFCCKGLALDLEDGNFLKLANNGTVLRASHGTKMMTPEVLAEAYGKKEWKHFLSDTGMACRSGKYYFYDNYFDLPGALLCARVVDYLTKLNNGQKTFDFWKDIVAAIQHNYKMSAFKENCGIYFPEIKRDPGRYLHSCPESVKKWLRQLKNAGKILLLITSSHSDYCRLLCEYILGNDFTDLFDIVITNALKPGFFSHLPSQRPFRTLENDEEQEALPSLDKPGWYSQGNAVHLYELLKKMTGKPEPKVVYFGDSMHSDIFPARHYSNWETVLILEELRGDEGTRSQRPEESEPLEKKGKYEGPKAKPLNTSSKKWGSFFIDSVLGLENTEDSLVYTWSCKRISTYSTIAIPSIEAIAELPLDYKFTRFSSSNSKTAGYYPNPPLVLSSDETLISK
UniProt Q6IAA8, whole entry: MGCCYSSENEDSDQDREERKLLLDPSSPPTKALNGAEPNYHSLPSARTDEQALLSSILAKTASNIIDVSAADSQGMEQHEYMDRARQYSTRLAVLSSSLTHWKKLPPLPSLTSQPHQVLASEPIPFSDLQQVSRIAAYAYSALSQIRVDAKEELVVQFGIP
UniProt Q66K64, whole entry: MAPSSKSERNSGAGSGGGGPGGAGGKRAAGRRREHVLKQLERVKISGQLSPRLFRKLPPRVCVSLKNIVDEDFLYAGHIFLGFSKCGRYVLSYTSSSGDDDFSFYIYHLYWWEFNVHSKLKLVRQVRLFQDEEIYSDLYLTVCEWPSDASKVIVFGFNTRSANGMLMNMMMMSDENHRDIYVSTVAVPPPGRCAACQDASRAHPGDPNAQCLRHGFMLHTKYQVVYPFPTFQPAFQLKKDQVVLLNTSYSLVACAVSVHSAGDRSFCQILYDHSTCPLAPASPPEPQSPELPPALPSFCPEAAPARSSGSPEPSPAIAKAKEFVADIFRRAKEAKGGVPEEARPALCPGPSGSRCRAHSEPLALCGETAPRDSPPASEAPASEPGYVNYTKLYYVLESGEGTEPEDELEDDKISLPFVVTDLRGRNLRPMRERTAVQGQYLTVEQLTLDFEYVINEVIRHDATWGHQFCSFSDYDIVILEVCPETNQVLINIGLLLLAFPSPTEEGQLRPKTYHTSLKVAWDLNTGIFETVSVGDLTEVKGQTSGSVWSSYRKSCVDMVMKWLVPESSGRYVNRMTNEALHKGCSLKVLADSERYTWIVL
UniProt Q9NSU2: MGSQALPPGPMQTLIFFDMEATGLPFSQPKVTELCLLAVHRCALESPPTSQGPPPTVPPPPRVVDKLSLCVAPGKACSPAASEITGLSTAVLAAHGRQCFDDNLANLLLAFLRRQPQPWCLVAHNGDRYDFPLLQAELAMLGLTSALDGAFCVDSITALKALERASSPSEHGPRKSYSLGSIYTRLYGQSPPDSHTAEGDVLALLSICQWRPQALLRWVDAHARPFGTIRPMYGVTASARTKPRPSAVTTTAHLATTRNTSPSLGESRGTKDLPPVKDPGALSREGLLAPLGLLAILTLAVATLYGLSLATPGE
UniProt Q5SY16: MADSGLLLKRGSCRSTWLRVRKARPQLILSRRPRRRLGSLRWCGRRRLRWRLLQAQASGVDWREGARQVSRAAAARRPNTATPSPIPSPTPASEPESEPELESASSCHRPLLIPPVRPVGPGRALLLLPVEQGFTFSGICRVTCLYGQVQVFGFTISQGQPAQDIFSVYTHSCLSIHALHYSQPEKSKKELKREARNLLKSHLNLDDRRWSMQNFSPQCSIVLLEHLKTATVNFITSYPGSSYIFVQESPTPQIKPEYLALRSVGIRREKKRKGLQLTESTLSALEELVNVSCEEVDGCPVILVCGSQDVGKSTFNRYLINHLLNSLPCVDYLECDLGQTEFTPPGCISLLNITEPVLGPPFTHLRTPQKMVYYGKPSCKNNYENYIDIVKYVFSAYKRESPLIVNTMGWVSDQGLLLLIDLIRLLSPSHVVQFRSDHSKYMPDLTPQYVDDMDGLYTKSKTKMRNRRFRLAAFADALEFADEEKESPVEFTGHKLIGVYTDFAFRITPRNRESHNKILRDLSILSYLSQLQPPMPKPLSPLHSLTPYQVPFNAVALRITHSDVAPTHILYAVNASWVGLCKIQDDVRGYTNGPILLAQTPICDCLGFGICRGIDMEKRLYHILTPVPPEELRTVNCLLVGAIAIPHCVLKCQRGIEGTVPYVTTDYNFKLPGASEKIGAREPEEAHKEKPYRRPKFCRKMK

What follows are targets tested with Nc1ncnc2c1ncn2[C@@H]1O[C@H](COP(=O)(O)OP(=O)(O)OP(=O)(O)O)[C@@H](O)[C@H]1O [adenosine triphosphate] (assay: NP40-soluble protein abundance relative to vehicle (solubility fold change) (ratio); higher = more soluble protein in presence of ATP). Conditions: concentration: 0.1mM.
Procedure, shortened: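 Data come from three independent experiments in which Dounce-homogenised Jurkat crude lysate was treated at eight concentrations from 0.1 to 10 mM. Treatment ran 10 min at room temperature and then 3 min at 37 °C, after which 0.8% NP40 and benzonase were added for 60 min at 4 °C before ultracentrifugation. The supernatant underwent TMT labelling and LC-MS/MS, and vsn-normalised intensities were expressed as fold change against the detergent-processed vehicle in each replicate.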
With UniProt Q68DK2 and related entries the NP40-soluble protein abundance was 0.932 ± 0.038. UniProt Q5JTD0 and related entries gave an NP40-soluble protein abundance of 0.986 ± 0.026. Work on UniProt Q52LJ0-2 yielded an NP40-soluble protein abundance of 0.992 ± 0.036. UniProt Q6IA86 and related entries showed an NP40-soluble protein abundance of 1.08 ± 0.05. For NADSYN1 (UniProt Q6IA69), the NP40-soluble protein abundance was 1.02 ± 0.06. UniProt Q5W0U4 and related entries was tested, and the NP40-soluble protein abundance was 1.006 ± 0.0073. With UniProt Q58EX7 and related entries the NP40-soluble protein abundance was 0.895 ± 0.066. With “Q5VV50 and related entries (UniProt Q5VV52)” the NP40-soluble protein abundance was 0.966 ± 0.064. For UniProt Q6NYC1 and related entries, the NP40-soluble protein abundance was 1.072 ± 0.0039. For UniProt Q5VSL9, the NP40-soluble protein abundance was 0.969 ± 0.04. In the case of CCDC58 (UniProt Q4VC31), the NP40-soluble protein abundance is reported as 0.949 ± 0.079. In the case of UniProt Q5T3I0 and related entries, the NP40-soluble protein abundance is reported as 1.06 ± 0.036. FAM91A1 (UniProt Q658Y4) gave an NP40-soluble protein abundance of 1.022 ± 0.0053. Work on UniProt Q5TDH0 and related entries yielded an NP40-soluble protein abundance of 1.02 ± 0.023. Work on ANKRD39 (UniProt Q53RE8) yielded an NP40-soluble protein abundance of 0.919 ± 0.04. In the case of UniProt Q5T6F0, the NP40-soluble protein abundance is reported as 1.01 ± 0.031. For NT5DC1 (UniProt Q5TFE4), the NP40-soluble protein abundance was 1.04 ± 0.11. With UniProt Q5H8A4-5|Q5H8A4-6 the NP40-soluble protein abundance was 1.01 ± 0.019. Work on UniProt Q69YH5 and related entries yielded an NP40-soluble protein abundance of 0.992 ± 0.025. In the case of UniProt Q53HC9 and related entries, the NP40-soluble protein abundance is reported as 1 ± 0.085. UniProt Q5T5C0 and related entries gave an NP40-soluble protein abundance of 1.04 ± 0.059. For CWF19L1 (UniProt Q69YN2), the NP40-soluble protein abundance was 1.01 ± 0.037. UniProt Q53H47 and related entries gave an NP40-soluble protein abundance of 1.01 ± 0.026. In the case of SLC27A4 (UniProt Q6P1M0), the NP40-soluble protein abundance is reported as 1 ± 0.024. With UniProt Q5VYS8 and related entries the NP40-soluble protein abundance was 1.06 ± 0.014. Target UniProt Q6IAA8 has an NP40-soluble protein abundance of 0.917 ± 0.063. For RFWD3 (UniProt Q6PCD5), the NP40-soluble protein abundance was 0.956 ± 0.043. For DCAF15 (UniProt Q66K64), the NP40-soluble protein abundance was 1.06 ± 0.099. “Q5TZT0 and related entries (UniProt Q9NSU2)” gave an NP40-soluble protein abundance of 0.991 ± 0.028. With UniProt Q4LE39 and related entries the NP40-soluble protein abundance was 0.974 ± 0.018. In the case of NOL9 (UniProt Q5SY16), the NP40-soluble protein abundance is reported as 0.97 ± 0.054. With PRPF8 (UniProt Q6P2Q9) the NP40-soluble protein abundance was 1.03 ± 0.037. With UniProt Q53TN4 and related entries the NP40-soluble protein abundance was 1.04 ± 0.086. Work on PGM2L1 (UniProt Q6PCE3) yielded an NP40-soluble protein abundance of 0.999 ± 0.052. SMYD5 (UniProt Q6GMV2) was tested, and the NP40-soluble protein abundance was 1.04 ± 0.06. For NUP188 (UniProt Q5SRE5), the NP40-soluble protein abundance was 1.05 ± 0.024. In the case of ZNF326 (UniProt Q5BKZ1), the NP40-soluble protein abundance is reported as 1.04 ± 0.058.
